According to patent US20230192842A1 (published 2023):
Results are given in words; binding and its absence hold for the method and conditions named. Some entries that bind do so weakly or less than the wild type.

Sequences of proteins named here, by UniProt entry; tags and fusion partners are left off. A change or cut given only in a name is not applied to a line headed by its entry.
UniProt O15551: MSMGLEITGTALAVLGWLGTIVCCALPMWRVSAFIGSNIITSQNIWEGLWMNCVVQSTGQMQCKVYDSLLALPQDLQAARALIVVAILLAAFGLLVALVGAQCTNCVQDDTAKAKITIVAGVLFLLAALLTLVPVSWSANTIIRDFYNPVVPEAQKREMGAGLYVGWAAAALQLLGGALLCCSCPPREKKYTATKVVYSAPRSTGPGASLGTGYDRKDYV

Biological target: human CLDN3 wild type on RKO KO CLDN3 WT cells (human) (UniProt O15551)
Experiment: flow cytometry on RKO KO CLDN3 WT cells

B1: 906-mAb (anti-CLDN3 906-mAb, monoclonal antibody version of the scFv of 906-009_LNGFR) (antibody, V domains shown)
VH: QVQLVQSGAEVKKPGSSVKVSCKASGYTFTNYWVHWVRQAPGQGLEWMGRIEPNSSGSQYNEKFKNRVTITADKSTSTAYMELSSLRSEDTAVYYCARGVMVPLDYWGQGTLVTVSS
VL: DIQMTQSPSSLSASVGDRVTITCKASQDINRYIAWYQQKPGKAPKLLIHYTSTLQPGVPSRFSGSGSGTDFTLTISSLQPEDFATYYCLQYETLYSFGQGTKLEIK
  binding: binds
